Measurements from “University of Dundee, Small-Polar-MMV Screening Library” (2021), ChEMBL document CHEMBL3988442.

By UniProt entry, the sequences of proteins in these tests, tags left out. Residues count along the entry.
UniProt Q8IDJ8, 1-583: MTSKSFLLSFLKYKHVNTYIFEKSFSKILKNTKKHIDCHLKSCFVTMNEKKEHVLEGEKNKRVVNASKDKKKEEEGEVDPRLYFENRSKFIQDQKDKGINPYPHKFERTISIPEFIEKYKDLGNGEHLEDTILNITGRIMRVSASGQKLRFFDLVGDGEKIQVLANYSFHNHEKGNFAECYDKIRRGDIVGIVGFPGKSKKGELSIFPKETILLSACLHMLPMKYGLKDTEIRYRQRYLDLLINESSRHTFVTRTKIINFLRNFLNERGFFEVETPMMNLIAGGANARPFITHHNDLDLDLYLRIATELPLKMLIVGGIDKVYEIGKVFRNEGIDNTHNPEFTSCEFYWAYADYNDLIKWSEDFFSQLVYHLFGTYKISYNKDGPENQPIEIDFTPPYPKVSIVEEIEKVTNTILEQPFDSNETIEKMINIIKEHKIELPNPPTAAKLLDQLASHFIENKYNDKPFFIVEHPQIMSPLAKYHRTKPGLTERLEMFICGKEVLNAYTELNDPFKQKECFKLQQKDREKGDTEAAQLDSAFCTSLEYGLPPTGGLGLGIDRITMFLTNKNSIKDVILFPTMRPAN
UniProt P9WFT3, whole entry: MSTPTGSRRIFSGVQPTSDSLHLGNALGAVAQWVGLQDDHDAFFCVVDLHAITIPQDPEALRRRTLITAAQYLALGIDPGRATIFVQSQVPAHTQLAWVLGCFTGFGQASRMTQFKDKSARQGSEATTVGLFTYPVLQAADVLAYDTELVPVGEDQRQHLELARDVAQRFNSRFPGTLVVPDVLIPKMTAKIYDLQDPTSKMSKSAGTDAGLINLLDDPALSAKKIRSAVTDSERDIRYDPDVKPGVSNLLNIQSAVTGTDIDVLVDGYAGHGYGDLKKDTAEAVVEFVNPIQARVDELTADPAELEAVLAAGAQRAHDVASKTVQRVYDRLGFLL
UniProt P9WPC5, whole entry: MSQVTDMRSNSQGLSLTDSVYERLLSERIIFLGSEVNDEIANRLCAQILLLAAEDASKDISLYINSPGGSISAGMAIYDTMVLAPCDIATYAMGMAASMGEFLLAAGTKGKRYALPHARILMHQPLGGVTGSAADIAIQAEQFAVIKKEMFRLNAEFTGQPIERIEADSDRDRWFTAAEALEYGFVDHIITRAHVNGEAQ
UniProt P9WPC3, whole entry partner: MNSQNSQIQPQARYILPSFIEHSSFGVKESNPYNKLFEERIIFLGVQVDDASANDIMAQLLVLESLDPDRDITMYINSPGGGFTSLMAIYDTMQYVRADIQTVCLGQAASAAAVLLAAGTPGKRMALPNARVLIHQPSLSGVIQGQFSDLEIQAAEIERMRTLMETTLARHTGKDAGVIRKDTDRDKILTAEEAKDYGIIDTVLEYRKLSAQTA

The filed quantity is “Percent Effect” (%). How 0% and 100% were set is not recorded. Most values in the screen are low, and negative values occur. Compounds were drawn at random from those tested, without regard to their results.

A: 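Enzyme assay of the cytosolic lysyl-tRNA synthetase in 384-well plates, read by luminescence. Target: Lysine-tRNA ligase, Plasmodium falciparum 3D7 (UniProt Q8IDJ8). Concentration: 30 µM. Higher reads as stronger inhibition, judged from the few compounds that gave an IC50. Size under these conditions: about 69,000 compounds, about 49 of them at 50% or above in at least one test.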
B: 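Enzyme assay of tryptophanyl-tRNA synthetase; the read-out is not stated. Target: Tryptophan-tRNA ligase, Mycobacterium tuberculosis (UniProt P9WFT3). Tested at 10 µM. Higher most likely means stronger inhibition; the record gives no direction and few retests gave an IC50. Of about 65,000 compounds tested this way, about 64 (0.098%) reached 50% or more in at least one test.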
C: 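Protease assay of ClpP1P2, read by the AMC dye that it sets free. Target: ClpP1P2, Mycobacterium tuberculosis (UniProt P9WPC5 and UniProt P9WPC3). Tested at 50 µM. Direction is inferred from only a few compounds that gave an IC50; most scored high, so higher reads as stronger inhibition. Most other retested compounds had strongly negative values. About 69,000 compounds were tested under these conditions; 0.015% (about 10) showed 50% or more at least once.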

* CCC(CNC(C)=O)(OC)c1ccccc1 (stereo not given) : A: 1.528%; B: -3.116%; C: 0.7587%
* COc1ccc(C2(C(=O)NC3CCc4nccn4C3)CCCC2)cc1 (stereo not given) : A: -0.4575%; B: 0.9413%; C: -1.334%
* CC(Cn1ccnc1)NC(=O)N(C)Cc1ccsc1 (stereo not given) : A: 6.743%; B: -3.943%; C: 7.066%
* CCN(Cc1ccc(Cl)s1)S(=O)(=O)CCOC : A: 0.3261%; B: -3.995%; C: -3.005%
* Cc1ccccc1CC(=O)N1CCOCC1c1c(C)n[nH]c1C (stereo not given) : A: 2.523%; B: 6.15%; C: -3.819%
* CSCC(=O)N1CCC2(CC1)c1ccccc1CC2O (stereo not given) : A: 1.532%; B: 4.225%; C: 4.72%
* CCCN1C(=O)c2ccccc2C1OC (stereo not given) : A: 1.793%; B: 2.448%; C: -7.533%
* CC(C)COCc1cncc2c1CCN(Cc1cnn(C)c1)C2 : A: 3.699%; B: -1.574%; C: 4.934%
* COCC(C)NC(=O)c1sccc1-n1cnnn1 (stereo not given) : A: 10.12%; B: -0.07127%; C: 3.422%
* Cc1oncc1C(=O)N[C@@H]1CN(c2ncccn2)C[C@@H]2CCCO[C@@H]21 : A: 8.198%; B: -3.906%; C: 4.13%
* O=C1NCCN1C1CCN(CCOc2ccccc2Cl)CC1 : A: 1.131%; B: -1.064%; C: -21.55%
* Cc1nc(CN2C[C@H]3C[C@H](C(=O)NCC4CC4)N(C)[C@H]3C2)cs1 : A: 0.06078%; B: -0.995%; C: 20.57%
* CCCC(C)C(=O)NCc1cn2cc(Br)ccc2n1 (stereo not given) : A: 0.05804%; B: 4.131%; C: -19.64%
* O=C(CC1CCCCC1)NC1CCCCNC1=O (stereo not given) : A: 3.154%; B: -0.7252%; C: -4.007%
* O=C(Cn1nc(N2CCOCC2)ccc1=O)Nc1nccs1 : A: -3.771%; B: 0.6159%; C: -13.9%
* CC(O)c1cn(CC2CCN(C(=O)c3cscn3)CC2)nn1 (stereo not given) : A: 5.139%; B: -2.171%; C: 32.73%
* CNc1cc(-c2ccc(COCCN)cc2)c2cc[nH]c2n1 : A: 8.955%; B: -3.807%; C: -140%
* CCCNC(=O)c1cc(C(C)C)nc(N2CCCCC2)n1 : A: -2.22%; B: -1.943%; C: -14.35%
* CC(C)CC1SCC(=O)Nc2c1cnn2-c1ccccc1F (stereo not given) : A: 2.715%; B: -0.7703%; C: -15.67%
* CN(Cc1cccc(-n2cccn2)c1)C(=O)c1cccc(N(C)C)c1 : A: 1.452%; B: -1.051%; C: -6.922%
* CC(=O)N1N=C(COc2ccc(Cl)cc2)OC1c1ccccc1 (stereo not given) : A: 1.326%; B: 3.613%; C: -12.75%
* Cc1ccc(C2C3=C(COC3=O)Nc3[nH]nc(C)c32)cc1C (stereo not given) : A: 13.54%; B: -4.422%; C: 10.62%
* CCc1ccc2nc(C)cc(C(=O)NC3CCC(=O)N(C)C3)c2c1 (stereo not given) : A: 3.626%; B: -3.043%; C: 3.577%
* O=C1CO[C@H]2CN(Cc3ccc(C(F)(F)F)cc3)C[C@H]2N1 : A: 4.086%; B: -5.994%; C: -5.903%
* CC(C)(C)n1cc(C2=CCN(CCNC(=O)c3ccccc3)CC2)cn1 : A: 4.261%; B: 2.308%; C: 3.834%
* CC(CO)CSc1ncnc2[nH]ncc12 (stereo not given) : A: 4.144%; B: -0.8189%; C: -4.241%
* O=C(Cc1ccccc1)NCc1ccc(-c2ccccc2C(=O)O)cn1 : A: -0.6011%; B: -8.925%; C: -17.88%
* Cc1cnn(CCNCC(O)COc2cccc(C(F)(F)F)c2)c1 (stereo not given) : A: -0.2749%; B: -6.861%; C: 7.095%
* CC(C#N)CN(C)Cc1c(Cl)ccc2cccnc12 (stereo not given) : A: 3.467%; B: -1.351%; C: -5.702%
* Cc1nc(C(=O)N2CCN(S(=O)(=O)N(C)C)CC2)c(-c2ccccc2)s1 : A: -0.4258%; B: 1.84%; C: -10.7%
* CCS(=O)(=O)c1ccccc1N1CCC(NC(=O)C(C)C)CC1 : A: -0.06591%; B: -1.004%; C: -11.74%
* CCc1noc(CC)c1CC(=O)N1CCN(C(=O)C2CCCC2)CC1 : A: 1.847%; B: -1.156%; C: -9.01%
* Cc1nc(N2CCN(C(=O)c3ccncc3)CC2)c2c(n1)c(C)nn2C : A: 2.606%; B: 0.5181%; C: 11.61%
* CC(C)[C@H](NC(=O)NC1CCS(=O)(=O)C1)C(=O)NCc1ccccc1 (stereo not given in full) : A: -2.594%; B: 1.19%; C: -13.89%
* c1cc(CN2C[C@@H]3COC[C@]3(COCC3CC3)C2)ccn1 : A: -2.274%; B: 10.65%; C: 9.209%
* Cn1cnc2nc3n(c2c1=O)CCC3 : A: -2.378%; B: -0.7341%; C: 19.26%